Data taken from patent US20090197853A1, “METHODS AND COMPOSITIONS OF TREATING CANCER” (priority 2005, published 2009).

Test system: Ramos cells
Assay: Gene expression profiling on Human Genome U133 Plus 2.0 Arrays, Ramos cultures
Type: cell-based
Procedure: Methods: Gene Expression Profiling—MGd (10 μM), Zn(OAc)2 (25 or 50 μM, the combinations, or control (5% mannitol) solution were added to Ramos cultures. Each treatment was performed in triplicate. After 4 hours of incubation, all cultures were washed twice with 0.5% BSA in HBSS and total RNA was isolated and subjected to analysis on Human Genome U133 Plus 2.0 Arrays (Affymetrix, Santa Clara, Calif.). Microarray Suite version 5.0 software (Affymetrix) was used to generate raw gene expression scores and normalize the relative hybridization signal from each experiment. All gene expression scores were set to a minimum value of fifty in order to minimize noise associated with less robust measurements of rare transcripts. Both the parametric Student's t-test and the permutation-based significance analysis of microarrays (SAM) were used to determine genes differentially expressed in treatment versus control groups.

Row | SMILES | Number of down-regulated transcripts (Ramos, 10 μM MGd, 4 hours) | Share of MGd-changed transcripts also changed by 50 μM zinc acetate (≧1.5-fold in the same direction, p≦0.005) [%] | Number of significantly changed transcripts (Ramos, 25 μM zinc acetate, 4 hours) | Number of down-regulated transcripts (Ramos, 50 μM zinc acetate) | Number of up-regulated transcripts (Ramos, 50 μM zinc acetate) | Number of significantly changed transcripts (Ramos, 50 μM zinc acetate, 4 hours)
1 | CC(=O)[O-].CC(=O)[O-].CCc1c(CC)c2cc3nc(cnc4cc(OCCOCCOCCOC)c(OCCOCCOCCOC)cc4ncc4nc(cc1[n-]2)C(CCCO)=C4C)C(C)=C3CCCO.O.[Gd+3] [MGd, Motexafin gadolinium] | six | 41 | – | – | – | –
2 | CC(=O)[O-].CC(=O)[O-].[Zn+2] [Zn(OAc)2, Zinc acetate] | – | – | 3 | 63 | 284 | 347
